From publication PMC8261665 come the findings set out here.

The chains behind the UniProt entries cited, without tags or fusion partners. Residues count along the entry.
UniProt O15260: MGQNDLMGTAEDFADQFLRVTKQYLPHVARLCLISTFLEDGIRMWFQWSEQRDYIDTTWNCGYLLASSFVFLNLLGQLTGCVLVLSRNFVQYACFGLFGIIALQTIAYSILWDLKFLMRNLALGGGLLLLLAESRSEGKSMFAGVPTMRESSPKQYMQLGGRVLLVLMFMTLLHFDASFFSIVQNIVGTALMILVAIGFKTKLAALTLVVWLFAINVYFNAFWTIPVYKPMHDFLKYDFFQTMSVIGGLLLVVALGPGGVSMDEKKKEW
UniProt P04114, residues 28-4563: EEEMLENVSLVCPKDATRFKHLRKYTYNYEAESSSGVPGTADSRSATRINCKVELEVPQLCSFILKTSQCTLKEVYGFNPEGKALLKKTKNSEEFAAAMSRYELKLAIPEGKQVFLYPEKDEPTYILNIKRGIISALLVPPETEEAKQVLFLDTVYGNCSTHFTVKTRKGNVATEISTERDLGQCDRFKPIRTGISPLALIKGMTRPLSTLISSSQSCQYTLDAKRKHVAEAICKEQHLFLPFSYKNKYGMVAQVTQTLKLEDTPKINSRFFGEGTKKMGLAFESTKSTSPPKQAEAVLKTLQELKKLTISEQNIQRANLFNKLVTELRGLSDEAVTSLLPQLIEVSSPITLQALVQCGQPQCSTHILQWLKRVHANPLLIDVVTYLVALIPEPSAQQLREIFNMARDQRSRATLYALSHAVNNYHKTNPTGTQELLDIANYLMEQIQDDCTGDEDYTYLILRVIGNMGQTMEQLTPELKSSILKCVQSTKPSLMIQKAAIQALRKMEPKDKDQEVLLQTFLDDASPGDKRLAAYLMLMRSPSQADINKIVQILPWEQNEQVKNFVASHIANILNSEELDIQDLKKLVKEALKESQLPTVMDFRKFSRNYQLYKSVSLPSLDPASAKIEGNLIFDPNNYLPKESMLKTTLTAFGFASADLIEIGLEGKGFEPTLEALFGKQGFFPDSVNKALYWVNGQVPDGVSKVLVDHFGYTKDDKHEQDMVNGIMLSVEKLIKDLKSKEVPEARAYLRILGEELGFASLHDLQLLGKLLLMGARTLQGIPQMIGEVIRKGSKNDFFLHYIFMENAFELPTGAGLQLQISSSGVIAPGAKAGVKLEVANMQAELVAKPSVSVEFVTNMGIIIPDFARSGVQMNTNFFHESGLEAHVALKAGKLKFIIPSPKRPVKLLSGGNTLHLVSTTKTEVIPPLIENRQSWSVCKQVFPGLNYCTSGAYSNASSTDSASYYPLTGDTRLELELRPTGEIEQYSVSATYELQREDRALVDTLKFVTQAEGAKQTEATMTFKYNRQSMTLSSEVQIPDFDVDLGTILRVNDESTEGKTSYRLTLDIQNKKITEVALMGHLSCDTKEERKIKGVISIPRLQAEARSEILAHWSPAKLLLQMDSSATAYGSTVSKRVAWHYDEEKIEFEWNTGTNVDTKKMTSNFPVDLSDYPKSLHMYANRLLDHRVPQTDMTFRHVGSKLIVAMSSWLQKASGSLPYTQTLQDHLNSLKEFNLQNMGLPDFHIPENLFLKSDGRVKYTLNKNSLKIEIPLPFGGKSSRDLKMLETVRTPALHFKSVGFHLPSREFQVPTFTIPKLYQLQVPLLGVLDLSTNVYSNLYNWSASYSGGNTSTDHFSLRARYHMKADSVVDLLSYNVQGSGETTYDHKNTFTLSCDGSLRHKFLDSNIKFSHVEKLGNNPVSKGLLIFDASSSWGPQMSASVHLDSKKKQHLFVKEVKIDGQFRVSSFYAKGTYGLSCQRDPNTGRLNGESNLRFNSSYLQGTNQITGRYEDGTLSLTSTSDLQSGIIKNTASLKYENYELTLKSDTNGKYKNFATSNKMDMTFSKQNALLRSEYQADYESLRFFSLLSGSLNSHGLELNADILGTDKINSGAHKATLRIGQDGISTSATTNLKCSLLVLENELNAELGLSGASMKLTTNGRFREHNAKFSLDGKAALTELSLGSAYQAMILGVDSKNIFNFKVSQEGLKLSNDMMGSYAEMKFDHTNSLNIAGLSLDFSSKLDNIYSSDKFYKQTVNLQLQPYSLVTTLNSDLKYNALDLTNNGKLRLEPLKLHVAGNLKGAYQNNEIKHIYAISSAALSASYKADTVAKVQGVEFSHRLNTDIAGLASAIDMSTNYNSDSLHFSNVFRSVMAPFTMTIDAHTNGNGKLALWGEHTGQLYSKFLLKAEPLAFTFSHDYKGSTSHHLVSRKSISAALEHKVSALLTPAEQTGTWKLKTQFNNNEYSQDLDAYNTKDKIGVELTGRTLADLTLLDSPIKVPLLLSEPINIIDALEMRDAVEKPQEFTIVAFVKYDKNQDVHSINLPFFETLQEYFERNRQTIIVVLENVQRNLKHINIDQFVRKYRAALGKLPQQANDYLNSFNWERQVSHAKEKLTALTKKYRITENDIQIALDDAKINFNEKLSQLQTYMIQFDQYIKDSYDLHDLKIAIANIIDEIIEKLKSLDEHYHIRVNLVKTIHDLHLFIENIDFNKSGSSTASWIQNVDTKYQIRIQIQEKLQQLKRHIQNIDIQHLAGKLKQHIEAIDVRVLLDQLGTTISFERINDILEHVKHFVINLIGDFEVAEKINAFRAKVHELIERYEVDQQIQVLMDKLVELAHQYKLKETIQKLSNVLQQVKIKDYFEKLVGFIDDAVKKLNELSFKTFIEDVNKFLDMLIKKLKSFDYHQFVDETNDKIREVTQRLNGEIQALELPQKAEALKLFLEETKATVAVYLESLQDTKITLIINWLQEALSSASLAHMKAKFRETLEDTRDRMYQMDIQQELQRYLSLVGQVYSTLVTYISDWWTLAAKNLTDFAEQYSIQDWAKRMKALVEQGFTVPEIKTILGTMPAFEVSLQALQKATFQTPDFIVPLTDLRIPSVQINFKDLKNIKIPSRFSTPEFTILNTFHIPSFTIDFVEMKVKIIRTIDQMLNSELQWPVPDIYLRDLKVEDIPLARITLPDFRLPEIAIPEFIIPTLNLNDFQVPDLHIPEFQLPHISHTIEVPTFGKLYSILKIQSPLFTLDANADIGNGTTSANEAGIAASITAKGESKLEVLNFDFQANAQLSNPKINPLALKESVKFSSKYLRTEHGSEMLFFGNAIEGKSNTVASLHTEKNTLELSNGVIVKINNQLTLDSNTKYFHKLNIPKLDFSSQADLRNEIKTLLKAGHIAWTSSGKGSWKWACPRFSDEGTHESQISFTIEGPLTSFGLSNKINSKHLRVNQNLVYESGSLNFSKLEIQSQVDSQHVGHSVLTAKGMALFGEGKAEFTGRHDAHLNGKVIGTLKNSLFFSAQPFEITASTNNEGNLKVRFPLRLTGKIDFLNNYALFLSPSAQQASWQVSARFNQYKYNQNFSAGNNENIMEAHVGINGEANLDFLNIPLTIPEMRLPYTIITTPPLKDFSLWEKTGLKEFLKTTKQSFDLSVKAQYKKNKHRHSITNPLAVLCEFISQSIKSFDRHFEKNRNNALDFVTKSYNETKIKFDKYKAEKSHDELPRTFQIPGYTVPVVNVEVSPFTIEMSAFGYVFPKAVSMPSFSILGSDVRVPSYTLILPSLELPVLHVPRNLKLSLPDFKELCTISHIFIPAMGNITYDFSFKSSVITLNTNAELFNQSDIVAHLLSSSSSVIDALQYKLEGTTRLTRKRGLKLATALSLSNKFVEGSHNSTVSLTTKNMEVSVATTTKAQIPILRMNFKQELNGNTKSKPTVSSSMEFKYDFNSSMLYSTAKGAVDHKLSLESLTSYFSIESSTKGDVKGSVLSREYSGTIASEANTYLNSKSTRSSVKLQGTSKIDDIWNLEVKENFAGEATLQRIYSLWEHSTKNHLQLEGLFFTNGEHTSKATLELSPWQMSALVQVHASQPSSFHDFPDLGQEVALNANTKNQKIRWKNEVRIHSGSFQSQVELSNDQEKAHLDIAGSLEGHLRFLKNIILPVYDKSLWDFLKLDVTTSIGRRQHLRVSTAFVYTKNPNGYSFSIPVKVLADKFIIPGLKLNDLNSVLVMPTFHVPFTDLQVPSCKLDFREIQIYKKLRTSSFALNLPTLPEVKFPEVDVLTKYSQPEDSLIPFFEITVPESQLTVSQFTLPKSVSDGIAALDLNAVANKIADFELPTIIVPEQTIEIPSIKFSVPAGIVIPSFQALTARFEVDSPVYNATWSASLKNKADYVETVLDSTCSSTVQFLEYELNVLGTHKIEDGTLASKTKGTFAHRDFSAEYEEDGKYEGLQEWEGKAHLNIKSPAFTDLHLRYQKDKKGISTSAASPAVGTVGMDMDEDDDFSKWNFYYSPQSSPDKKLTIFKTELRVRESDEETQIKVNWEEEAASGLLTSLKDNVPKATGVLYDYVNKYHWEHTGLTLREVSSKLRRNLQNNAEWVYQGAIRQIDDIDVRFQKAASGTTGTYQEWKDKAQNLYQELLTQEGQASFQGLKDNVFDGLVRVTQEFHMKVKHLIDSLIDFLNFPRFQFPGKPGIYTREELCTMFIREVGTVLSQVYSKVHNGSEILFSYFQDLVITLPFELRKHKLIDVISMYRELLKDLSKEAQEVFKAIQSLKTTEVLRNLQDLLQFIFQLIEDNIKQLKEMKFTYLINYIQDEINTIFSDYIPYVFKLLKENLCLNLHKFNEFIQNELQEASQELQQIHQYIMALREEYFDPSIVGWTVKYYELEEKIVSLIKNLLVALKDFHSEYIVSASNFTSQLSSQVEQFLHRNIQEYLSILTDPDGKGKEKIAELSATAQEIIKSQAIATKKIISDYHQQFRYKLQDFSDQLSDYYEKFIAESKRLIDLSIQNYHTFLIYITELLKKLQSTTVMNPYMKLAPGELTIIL

These are yes or no findings as the source states them, for the method shown. Binding seen in cells or lysates may run through a third protein. Some binding calls cover weakened binding; strength is not graded here.

For the assay, the target named is Surfeit 4 (Surf4) (human (endogenous in Huh7 and HepG2)) (UniProt O15260). Briefly: co-IP; whole cell lysate of Huh7 or HepG2 cells in lysis buffer A (1% Triton, 150 mM NaCl, 50 mM Hepes, pH 7.4) with rabbit anti-Surf4 antibody 1195Sa or preimmune serum and protein G beads; washed three times with lysis buffer A; Western blot. (Immunoblotting shows a protein as a band on a membrane.)

For the substance “apolipoprotein B100 (apoB100) (from UniProt P04114 28-4563)”, the binding entry is reported as “binds”.
